{
  "source": "paper PMC6779467",
  "key": {"[1]": {"system": "Hsf1-StrepTag II + Ssa1 (Hsp70)", "experiment": "competition with a labelled probe", "conditions": "10 mM Tris-HCl pH 7.5, 50 mM KCl, 2.5 mM DTT, 0.25% Tween 20, 20 min at 20 C, 6% DNA retardation gel in TBE, recombinant protein, protein details: C-terminal StrepTag II,6xHis-SUMO removed by Ulp1"}, "[2]": {"system": "Hsf1-StrepTag II + Ssa1 (Hsp70)", "experiment": "EMSA", "conditions": "10 mM Tris-HCl pH 7.5, 50 mM KCl, 2.5 mM DTT, 0.25% Tween 20, 20 min at 20 C, 6% DNA retardation gel in TBE, recombinant protein, protein details: C-terminal StrepTag II,6xHis-SUMO removed by Ulp1"}},
  "note": "For some of these results: No signal at the amounts used counts as a negative. For some of these results: At least one verdict rests on a figure or table, not on a statement of the authors. For at least one entry, the source does not settle the construct or the ends of the probe. For some of these results: Weaker means in comparison with the reference protein, sequence or condition of that experiment.",
  "data": [
    {"sequence": "TCGATTTTCCAGAACGTTCCATCGGC (double strand) [HSE (unlabeled competitor)]", "values": [
      {"measurement": "binding result", "setting": "[1]; unlabeled HSE competes HSE-DY682", "result": "binds"}
    ]},
    {"sequence": "TCGATGTGCCAGTACGTAGCATCGGC (double strand) [HSE* (mut HSE)]", "values": [
      {"measurement": "binding result", "setting": "[1]; unlabeled inactive mutant HSE vs HSE-DY682", "result": "no binding"}
    ]},
    {"sequence": "TCGATTTTCCAGAACGTTCCATCGGC (double strand) [HSE-DY682]", "values": [
      {"measurement": "binding result", "setting": "[2]; excess Ssa1 added (5x +1.25 uM, 10x +2.5 uM, titration 0.25-4.0 uM), without ATP, titratable decrease", "result": "binds more weakly"},
      {"measurement": "binding result", "setting": "[2]; excess Ssa1 added, with 1 mM ATP, ATP has no significant effect except at highest Ssa1", "result": "binds more weakly"}
    ]}
  ]
}
